Taken from: PubChem BioAssay AID652243 (Drosophila RNAi Screening Center, 2013)
The deposit covers about 24,000 reagents; below is a random part of those that have a named target and a result. Over the whole deposit, 246 (1%) are marked active. 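Plates not normalised; calls are printed but the firefly/Renilla ratio behind them is not deposited; fold cut for lowering reported inconsistently.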 Raw values vary from plate to plate and are shown uncorrected. Reagents against one gene are numbered here. A plus sign joins genes that one reagent is predicted to hit. Not given: the amount of reagent.

Assay: 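Fly regulators of androgen-dependent reporter output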 (primary screen)
Cells: Drosophila S2R+ cells
Reagent: long dsRNA against Drosophila genes
Time to read-out: 72 h (48 h, then 24 h hormone)
Challenge: synthetic androgen R1881 at 10 nM for 24 h
Measured: 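Firefly light from an androgen-responsive reporter and Renilla control light per well, raw and unnormalised, for each of two replicates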
Scale: firefly reporter light: higher = more light from androgen-responsive reporter; Renilla control light: higher = more constitutive control signal (cell number, transfection)
Active means: 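Hit when the log firefly-to-Renilla ratio dropped or increased by a fixed fold versus the mean of GFP or LacZ controls across duplicate plates; lowering cut given as 1.5 and as 3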
Meaning of the calls: active = hit: reporter lowered or raised; inactive = no hit

target gene	reagent no.	firefly reporter light, replicate 1	firefly reporter light, replicate 2	Renilla control light, replicate 1	Renilla control light, replicate 2	outcome
CG8814	1	7.63e5	9.70e5	3.07e6	2.53e6	inactive
CG8814	2	4.77e5	5.34e5	8.56e5	8.66e5	inactive
dpr6	1	1.45e5	95085	1.45e5	1.92e5	inactive
dpr6	2	3.26e5	2.03e5	3.47e6	1.97e6	inactive
dpr6	3	7.86e5	6.94e5	2.94e6	4.23e6	inactive
Dh44-R1	1	6.18e5	8.20e5	1.84e6	1.75e6	inactive
Dh44-R1	2	3.05e5	3.23e5	1.13e6	1.13e6	inactive
Obp19d	1	3.36e5	1.91e5	1.53e6	8.39e5	inactive
Impbeta11 + asRNA:CR43429	1	57787	87191	9.35e5	9.35e5	inactive
Osi9	1	3.50e5	3.46e5	1.94e6	2.65e6	inactive
Osi9	2	4.98e5	4.28e5	1.60e6	1.42e6	inactive
tap	1	1.69e5	1.42e5	2.09e6	1.85e6	inactive
dor	1	1.19e5	92081	1.05e6	8.17e5	inactive
dor	2	2.06e5	1.82e5	7.71e5	9.78e5	active
Uba3	1	8.97e5	7.99e5	2.04e6	2.12e6	inactive
CG4036	1	7.88e5	7.62e5	2.04e6	1.95e6	inactive
CG17734	1	5.35e5	5.86e5	1.60e6	1.95e6	inactive
CG17734	2	7.24e5	7.91e5	7.95e5	1.13e6	inactive
CG18746	1	1.31e5	1.38e5	2.53e6	2.06e6	inactive
att-ORFB + DPCoAC	1	2.03e5	2.95e5	2.63e6	3.00e6	inactive
CG14715	1	41581	50658	6.61e5	6.50e5	inactive
CG32276	1	1.26e5	1.41e5	3.08e5	3.39e5	inactive
Fbxl7	1	2.18e5	2.38e5	3.08e6	3.56e6	inactive
Fbxl7	2	1.03e6	1.13e6	1.20e6	1.37e6	inactive
asRNA:CR31144 + RpL3	1	92938	1.85e5	1.52e6	1.66e6	inactive
LPCAT	1	3.55e5	3.65e5	3.38e6	3.07e6	inactive
LPCAT	2	2.81e5	3.51e5	3.21e6	3.12e6	inactive
CG13390	1	2.14e5	1.52e5	1.88e6	1.25e6	inactive
CG13390	2	7.67e5	1.07e6	8.66e5	8.43e5	inactive
CG13390	3	2.78e5	2.12e5	1.03e6	9.54e5	active
CG33127	1	1.43e5	75266	4.74e5	2.63e5	inactive
CG3744	1	1.16e5	1.32e5	2.02e6	1.78e6	inactive
CG3744	2	4.42e5	3.52e5	1.16e6	9.67e5	inactive

Next part, starting with the last 8 of the part before.
target gene	reagent no.	firefly reporter light, replicate 1	firefly reporter light, replicate 2	Renilla control light, replicate 1	Renilla control light, replicate 2	outcome
LPCAT	1	3.55e5	3.65e5	3.38e6	3.07e6	inactive
LPCAT	2	2.81e5	3.51e5	3.21e6	3.12e6	inactive
CG13390	1	2.14e5	1.52e5	1.88e6	1.25e6	inactive
CG13390	2	7.67e5	1.07e6	8.66e5	8.43e5	inactive
CG13390	3	2.78e5	2.12e5	1.03e6	9.54e5	active
CG33127	1	1.43e5	75266	4.74e5	2.63e5	inactive
CG3744	1	1.16e5	1.32e5	2.02e6	1.78e6	inactive
CG3744	2	4.42e5	3.52e5	1.16e6	9.67e5	inactive
Wnk	1	9.23e5	1.17e6	8.45e5	8.01e5	inactive
Tim8	1	5.61e5	5.36e5	3.94e6	3.47e6	inactive
fax	1	19465	21754	2.43e5	2.30e5	inactive
fax	2	4.65e5	5.20e5	6.23e5	6.47e5	inactive
CG10013	1	50838	53761	4.61e5	4.82e5	inactive
PSMG1	1	42138	40163	4.60e5	4.22e5	inactive
PSMG1	2	2.54e5	4.66e5	9.07e5	1.18e6	inactive
Pmm2	1	1.74e5	1.80e5	1.97e6	1.86e6	inactive
Pmm2	2	8.00e5	6.62e5	2.04e6	1.88e6	inactive
CG14757	1	3.89e5	4.65e5	2.71e6	2.64e6	inactive
CG14757	2	1.13e6	1.19e6	1.26e6	1.44e6	inactive
pdm2	1	1.81e5	1.87e5	1.02e6	1.44e6	inactive
pdm2	2	1.44e5	1.78e5	9.63e5	1.22e6	inactive
CG18011	1	7.09e5	5.97e5	1.05e6	1.13e6	inactive
CG18011	2	3.11e5	2.49e5	1.75e6	1.97e6	inactive
y	1	3.08e5	5.17e5	3.79e6	3.09e6	inactive
y	2	4.54e5	4.59e5	1.79e6	2.38e6	inactive
UQCR-14L	1	2.47e5	2.12e5	2.78e6	3.37e6	inactive
UQCR-14L	2	3.90e5	7.51e5	9.71e5	1.67e6	inactive
UQCR-14L	3	9.11e5	5.66e5	7.37e5	6.88e5	inactive
CG17219	1	1.21e5	1.03e5	1.04e6	8.90e5	inactive
CG13306	1	2.20e5	2.76e5	2.19e6	2.29e6	inactive
CG8087	1	1.97e5	2.14e5	2.41e6	2.53e6	inactive
CG8087	2	5.33e5	4.30e5	8.38e5	4.98e5	inactive
CG33223	1	7.81e5	8.52e5	1.17e6	1.08e6	inactive
CG33223	2	3.71e5	3.60e5	1.14e6	8.83e5	inactive
Diedel3	1	2.90e5	1.73e5	1.02e6	5.36e5	inactive
ODA-Dnal1	1	3.71e5	2.69e5	2.52e6	2.06e6	inactive
ODA-Dnal1	2	2.98e5	5.17e5	1.24e6	2.00e6	inactive
Spc25	1	89929	1.08e5	1.71e6	2.38e6	inactive
TotE	1	5.68e5	4.17e5	1.33e6	1.32e6	inactive
Ufsp2	1	1.02e5	38695	9.90e5	3.72e5	inactive
CG6785	1	3.24e5	3.58e5	8.07e5	1.09e6	inactive
CG6785	2	7.31e5	8.16e5	9.42e5	1.16e6	inactive
CG13126	1	1.82e5	1.33e5	1.09e6	1.11e6	inactive
CG13126	2	2.60e5	2.52e5	8.00e5	9.52e5	inactive
Cnot4	1	1.60e5	2.28e5	1.47e6	1.63e6	inactive
Cnot4	2	1.52e5	1.64e5	1.30e6	1.34e6	inactive
yellow-h	1	3.38e5	3.17e5	8.72e5	1.91e6	inactive
CG32054	1	2.41e5	1.94e5	2.74e6	1.40e6	inactive
CG32054	2	5.26e5	6.02e5	5.34e5	5.57e5	inactive
